Reference: US6468729B2, “Silver halide photographic light-sensitive material” (Fuji Photo Film Co., Ltd., priority 2000, dated 2002)

Experiment: Yellow stains after 5,000-lux fluorescent lamp irradiation for two weeks
Conditions: increased yellow density minus blank
Experimental: Evaluation of yellow stains: Each sample was exposed to white light of 500 lux for 1 sec and subjected to the following development. The obtained samples were irradiated with a 5,000-lux fluorescent lamp for two weeks, and the yellow stain density was measured. Evaluation was done by subtracting the blank density from the increased yellow density. The smaller the value, the less yellow stains were generated.

[1] = Example 1, oil/coupler ratio 0.5
[2] = Example 1, oil/coupler ratio 0.0

SMILES: CCCCCCCCOC(=O)Nc1cccc(S(=O)(=O)Nc2cccc(S(=O)(=O)NC(C)(C)c3n[nH]c4cc(C(C)(C)C)nn34)c2)c1 [MC-37]
- Yellow stain [1]: 0.01

SMILES: CCCCCCCCOc1ccc(C(C)(C)CC(C)(C)C)cc1S(=O)(=O)Nc1cc(S(=O)(=O)Nc2c(C)cc(C)c(-c3n[nH]c4cc(CC)nn34)c2C)ccc1Cl [Compound G-3]
- Yellow stain [2]: 0.05
- Yellow stain [1]: 0.19

SMILES: CCCCCCCCCCCCCCCCCCOc1ccc(NS(=O)(=O)c2cc(C(=O)OC3CCCCC3)cc(C(=O)OC3CCCCC3)c2)cc1S(=O)(=O)NC(C)c1n[nH]c2cc(C(C)(C)C)nn12 (centres unmarked) [MC-58]
- Yellow stain [1]: 0.01

SMILES: CCCCCCCCC(CCCCCC)COc1ccc(NS(=O)(=O)c2ccc(Cl)cc2Cl)cc1S(=O)(=O)NC(C)c1n[nH]c2cc(C(C)(C)C)nn12 (centres unmarked) [MC-20]
- Yellow stain [2]: 0.02

SMILES: CCCCCCCCCCCCCCCCOc1cccc(S(=O)(=O)Nc2ccc(C(C)(C)C)c(S(=O)(=O)Nc3ccc(Cl)c(-c4n[nH]c5cc(C(C)C)nn45)c3Cl)c2)c1 [MC-38]
- Yellow stain [1]: 0.02

SMILES: CCCCCCCCCCCCOc1cc(NS(=O)(=O)c2ccc(C)cc2)ccc1S(=O)(=O)NC(C)c1n[nH]c2cc(C(C)(C)C)nn12 (centres unmarked) [MC-40]
- Yellow stain [1]: 0.01

SMILES: CCCCCCCCCCCCCCCCOc1ccc(NS(=O)(=O)c2cc(C(=O)N3CCOCC3)cc(C(=O)N3CCOCC3)c2)cc1S(=O)(=O)NC(C)c1n[nH]c2cc(C(C)(C)C)nn12 (centres unmarked) [MC-46]
- Yellow stain [2]: 0.01

SMILES: CCCCCCCCCCCCOc1ccc(S(=O)(=O)NC(C)c2n[nH]c3cc(C(C)(C)C)nn23)cc1NS(=O)(=O)c1ccc(Cl)cc1 (centres unmarked) [MC-39]
- Yellow stain [1]: 0.01

SMILES: CCCCCCCCOc1ccc(NS(=O)(=O)c2cc(C(C)(C)CC(C)(C)C)ccc2OCCOc2ccc(C)cc2)cc1S(=O)(=O)NC(C)c1n[nH]c2cc(C(C)(C)C)nn12 (centres unmarked) [Compound G-4]
- Yellow stain [2]: 0.02
- Yellow stain [1]: 0.03

SMILES: CCCCCCCCCCCCCCCCCCOc1ccc(C(C)(C)C)cc1S(=O)(=O)NC(C)c1n[nH]c2cc(C(C)(C)C)nn12 (centres unmarked) [Compound G-1]
- Yellow stain [1]: 0.04

SMILES: CCCCCCCCCCCCCCCC(C(=O)O)C(=O)Nc1cccc(C(=O)Nc2ccc(CCCc3n[nH]c4cc(C(C)(C)C)nn34)cc2)c1 (centres unmarked) [Compound G-2]
- Yellow stain [2]: 0.06
- Yellow stain [1]: 0.14
